Laboratory results taken from patent US20210069230A1, “SYNERGISTIC DRUG COMBINATIONS PREDICTED FROM GENOMIC FEATURES AND SINGLE-AGENT RESPONSE PROFILES” (THE BROAD INSTITUTE, INC., priority 2018, published 2021).
Some results were stated once for a whole list of compounds, not compound by compound. For at least one compound, name, drawing or mass did not settle the structure.

Tested on: G402 and CJM cells overexpressing BCL2L1
Assay: Lentiviral ORF overexpression, compound sensitivity (CellTiter-Glo, GR)
Type: cell-based
Conditions: 72 hours

COC(=O)C[C@](O)(CCCC(C)(C)O)C(=O)O[C@@H]1C(OC)=C[C@]23CCCN2CCc2cc4c(cc2[C@H]13)OCO4 [omacetaxine]
changes in GR50 conferred by BCL2L1 overexpression: 2-4 fold
